This is an account of results in publication PMC7911190, “One Step Histological Detection and Staining of the PTEN Tumor Suppressor Protein by a Single Strand DNA”.

The test system of one series is PTEN peptide. The experiment in a line: competition with a labelled probe. The conditions noted are these: 5 uM peptide blocks staining of endometrium; Fixed tissue sections; 5 uM aptamer in TKT (25 mM Tris-HCl pH 8, 20 mM KCl, 200 mM NaCl, 0.05% Triton X-100, 0.1% DMSO), 100 uM hemin for DNAzyme constructs, BSA; label: 5' biotin; folded or branched DNA.
In series [1] the test system is GST-PTEN recombinant protein. The experiment in a line: competition with a labelled probe. The conditions noted are these: 2 mM GST-PTEN as printed blocks staining of endometrium; Fixed tissue sections; 5 uM aptamer in TKT (25 mM Tris-HCl pH 8, 20 mM KCl, 200 mM NaCl, 0.05% Triton X-100, 0.1% DMSO), 100 uM hemin for DNAzyme constructs, BSA; recombinant protein; protein details: GST; label: 5' biotin; folded or branched DNA.

For at least one entry, the source does not settle the construct or the ends of the probe.

On to “CGGAATTCCGAGCGTGGGCGTGGTCATACCGCGCCTATCGAACTCGCCACTCGCGTGCAGCTCTGTGTAGGTACGCCCACGCTCGAG [PTENz7-87-biotin]”, for which the binding result (in the series on PTEN peptide; in series [1]) was “binds” in each case.
